Values quoted from earlier work, collected in US9233095B2, “Small molecule RNase inhibitors and methods of use” (University of Rochester, priority 2011, dated 2016).
Some entries share one result that the patent states for a list of compounds.

Test system: biofilm-associated S. aureus strain UAMS-1
Settings: 5× MIC, 24 hr treatment, Weiss et al. 2009; cited from earlier work

In the case of `CC(=O)NC[C@H]1CN(c2ccc(N3CCOCC3)c(F)c2)C(=O)O1` [linezolid], the “reduction of biofilm-associated bacteria” value is given as under 2 logs.
